Test results as given in paper doi:10.1101/2023.07.31.551310.
No constants are given. Whether binding was seen depends on the method and setting. For part of these data: Binding seen in cells or lysates may run through a third protein. Some entries that bind do so weakly or less than the wild type. For part of these data: Where a sequence is shown, tags or fusion partners need not be part of it.

Protein sequences, listed by entry. Tags and fused reporters are not part of them. Lines headed by an entry give the natural chain unless they say otherwise; changes in a name come on top. Residues count along the entry.
UniProt F4IXW2: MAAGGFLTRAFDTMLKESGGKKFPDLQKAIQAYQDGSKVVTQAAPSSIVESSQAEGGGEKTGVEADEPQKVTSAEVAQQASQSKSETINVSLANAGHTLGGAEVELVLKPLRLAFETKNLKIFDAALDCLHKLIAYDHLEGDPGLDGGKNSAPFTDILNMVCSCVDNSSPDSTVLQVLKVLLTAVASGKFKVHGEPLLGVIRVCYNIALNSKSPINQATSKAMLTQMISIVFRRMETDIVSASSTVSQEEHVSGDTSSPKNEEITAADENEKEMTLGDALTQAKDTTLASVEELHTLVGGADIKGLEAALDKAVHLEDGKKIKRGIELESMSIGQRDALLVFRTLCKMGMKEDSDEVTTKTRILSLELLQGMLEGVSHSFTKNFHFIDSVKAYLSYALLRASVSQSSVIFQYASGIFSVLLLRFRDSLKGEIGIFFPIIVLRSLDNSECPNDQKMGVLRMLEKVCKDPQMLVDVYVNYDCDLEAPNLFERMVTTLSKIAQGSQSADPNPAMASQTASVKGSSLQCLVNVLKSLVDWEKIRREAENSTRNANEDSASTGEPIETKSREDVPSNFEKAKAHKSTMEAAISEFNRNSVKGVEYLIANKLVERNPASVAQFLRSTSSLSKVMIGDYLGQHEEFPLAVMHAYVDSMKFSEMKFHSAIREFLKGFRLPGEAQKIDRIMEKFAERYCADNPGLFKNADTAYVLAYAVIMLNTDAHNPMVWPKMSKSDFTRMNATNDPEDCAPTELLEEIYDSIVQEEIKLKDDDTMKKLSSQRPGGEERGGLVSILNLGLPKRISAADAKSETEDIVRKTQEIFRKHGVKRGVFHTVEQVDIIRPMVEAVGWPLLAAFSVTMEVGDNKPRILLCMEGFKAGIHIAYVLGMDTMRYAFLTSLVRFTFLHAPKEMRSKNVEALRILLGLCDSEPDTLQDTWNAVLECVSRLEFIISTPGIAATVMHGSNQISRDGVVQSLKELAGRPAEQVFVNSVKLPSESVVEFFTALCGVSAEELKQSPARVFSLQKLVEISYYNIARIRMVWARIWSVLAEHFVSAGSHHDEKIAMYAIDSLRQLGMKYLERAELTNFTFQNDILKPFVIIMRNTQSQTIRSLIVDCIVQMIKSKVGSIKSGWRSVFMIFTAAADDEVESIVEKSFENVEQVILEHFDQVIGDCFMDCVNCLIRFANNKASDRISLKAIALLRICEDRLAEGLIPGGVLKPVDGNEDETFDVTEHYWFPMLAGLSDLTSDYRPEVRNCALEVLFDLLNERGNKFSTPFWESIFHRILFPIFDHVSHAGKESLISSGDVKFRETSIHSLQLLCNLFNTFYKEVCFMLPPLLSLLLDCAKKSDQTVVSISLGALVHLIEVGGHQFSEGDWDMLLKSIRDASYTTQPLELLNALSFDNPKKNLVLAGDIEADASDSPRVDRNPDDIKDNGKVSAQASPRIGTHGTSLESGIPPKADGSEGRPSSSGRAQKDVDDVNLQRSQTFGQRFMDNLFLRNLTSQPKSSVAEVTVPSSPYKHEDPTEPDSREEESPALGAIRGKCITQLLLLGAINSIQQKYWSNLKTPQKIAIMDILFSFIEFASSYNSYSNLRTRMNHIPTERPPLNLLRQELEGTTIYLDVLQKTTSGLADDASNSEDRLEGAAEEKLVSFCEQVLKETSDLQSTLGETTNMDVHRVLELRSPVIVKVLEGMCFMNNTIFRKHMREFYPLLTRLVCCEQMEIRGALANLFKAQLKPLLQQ
BD::MIN7-M (aa571–1207, including the Sec7 catalytic domain): residues 571-1207 of F4IXW2
BD::MIN7-C (aa1208–1739): residues 1208-1739 of F4IXW2

How the values were obtained:
[1] = molecular target: BD::MIN7-C (aa1208–1739) (Arabidopsis) (UniProt F4IXW2); assay: two-hybrid; LexA-based Y2H system (Clontech); BD fusions from pGILDA, AD fusions from pB42AD; strain EGY48 with lacZ reporter plasmid; minimal medium with galactose and X-gal; blue colour indicates interaction
MIN7 (Arabidopsis) = MIN7 (Arabidopsis) (UniProt F4IXW2); assay: co-IP; targeted co-IP with MIN7- and MIN10-specific antibodies (Fig. S3); material and conditions not shown
[2] = molecular target: BD::MIN7-M (aa571–1207, including the Sec7 catalytic domain) (Arabidopsis) (UniProt F4IXW2); assay: two-hybrid; LexA-based Y2H system (Clontech); BD fusions from pGILDA, AD fusions from pB42AD; strain EGY48 with lacZ reporter plasmid; minimal medium with galactose and X-gal; blue colour indicates interaction

B1: AD::HLB1 (full-length HLB1) (protein, UniProt Q9FHY8 1-565)
chain: MADTVEEPQLQNGAAPAESETEQNPIPEPQLQTEPKLTGEIPEIEADLTPEEVQSEVTDAKPEEVQSEVKPEEVKTVVTDAKPEEAQSEVKPEEVQSVVTDTKPDLTDVDLSPGGSEEIPIRSTEVEQESTTSVLKKDDDGNKTFTMRELLSELKSEEGDGTPHSSASPFSRESASQPAENNPAMDLINRIQVNDEEGRSRQRVLAFAARKYASAIERNPDDHDALYNWALILQESADNVSPDSVSPSKDDLLEEACKKYDEATRLCPTLYDAYYNWAIAISDRAKIRGRTKEAEELWEQAADNYEKAVQLNWNSSQALNNWGLVLQELSQIVPAREKEKVVRTAISKFRAAIRLQFDFHRAIYNLGTVLYGLAEDTLRTGGSGNGKDMPPGELYSQSAIYIAAAHSLKPSYSVYSSALRLVRSMLPLPHLKVGYLTAPPVGNSLAPHSDWKRTEFELNHERLLQVLKPEPREMGRNLSGKAETMSTNVERKTVKVNITEIVSVTPCADLTLPPGAGLCIDTIHGPVFLVADSWESLDGWLDAIRLVYTIYARGKSDVLAGIITG
[1]
  binding: binds

B2: MIN10 (14-3-3 KAPPA) (protein, UniProt P48348 1-248)
chain: MATTLSRDQYVYMAKLAEQAERYEEMVQFMEQLVSGATPAGELTVEERNLLSVAYKNVIGSLRAAWRIVSSIEQKEESRKNEEHVSLVKDYRSKVETELSSICSGILRLLDSHLIPSATASESKVFYLKMKGDYHRYLAEFKSGDERKTAAEDTMIAYKAAQDVAVADLAPTHPIRLGLALNFSVFYYEILNSSEKACSMAKQAFEEAIAELDTLGEESYKDSTLIMQLLRDNLTLWTSDMQEQMDEA
MIN7 (Arabidopsis)
  binding: binds

B3: AD::MIN10 (full length 14-3-3 kappa) (protein, UniProt P48348 1-248)
chain: B2 chain
[2]
  binding: binds
